Results published in the supplement of paper PMC12542422.
Counter-ions that a name gives are not always drawn. ± gives the standard deviation of the averaged measurements. The list shows a part of the results. Values are raw readings; no control value is given beside them.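 Across three biological replicates, HeLa cells were imaged for ribosome assembly using ENP1 staining (export block present or absent) or inducible tagged ribosomal protein reporters. Machine learning classified each cell's signal localization relative to DMSO controls. Hits exceeded the DMSO false-positive mean by five standard deviations and were then visually confirmed.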

These compounds were tested on HeLa RPL29-GFP reporter (assay: fraction of reporter-positive cells with nuclear (nucleolar or nucleolar/nucleoplasmic) RPL29-GFP (MainHitrate); higher = more cells with nucleolar/nuclear readout signal (for ENP1 -LMB: less RNAPI inhibition; for +LMB ENP1 and RP reporters: stronger nuclear/nucleolar retention, i.e. ribosome biogenesis defect)). Conditions: concentration: 1 µM; treatment time: 6 h.

SMILES	fraction of reporter-positive cells with nuclear
N=C(N)N/N=C/c1c(Cl)cccc1Cl [Guanabenz acetate]	0.221 ± 0.1
CC(=O)[C@H]1CC[C@H]2[C@@H]3CCC4=CC(=O)CC[C@]4(C)[C@H]3CC[C@]12C [Progesterone (Prometrium)]	0.214 ± 0.054
Cc1onc(-c2ccccc2)c1C(=O)N[C@@H]1C(=O)N2[C@@H]1SC(C)(C)[C@@H]2C(=O)O [Oxacillin sodium monohydrate]	0.216 ± 0.099
CCN(CC)C(=O)C1(c2ccccc2)CC1CN (centres undefined) [Milnacipran HCl]	0.247 ± 0.084
CC(=O)Nc1ccccc1 [Acetanilide (Antifebrin)]	0.247 ± 0.093
O=NN(CCCl)C(=O)NC1CCCCC1 [Lomustine (CeeNU)]	0.25 ± 0.08
Cc1cccc(Nc2ccncc2S(=O)(=O)NC(=O)NC(C)C)c1 [Torsemide (Demadex)]	0.199 ± 0.032
O=P(O)(O)C(O)(Cn1ccnc1)P(=O)(O)O [Zoledronic Acid (Zoledronate)]	0.213 ± 0.058
C[C@@H]1C/C=C/C=C/C=C/C=C/[C@H](O[C@@H]2O[C@H](C)[C@@H](O)[C@H](N)[C@@H]2O)C[C@@H]2O[C@](O)(C[C@@H](O)C[C@H]3O[C@@H]3/C=C/C(=O)O1)C[C@H](O)[C@H]2C(=O)O [Natamycin (Pimaricin)]	0.239 ± 0.068
CN(C)CCCN1c2ccccc2Sc2ccc(Cl)cc21 [Chlorpromazine (Sonazine)]	0.262 ± 0.091
COc1cccc2c1C(=O)c1c(O)c3c(c(O)c1C2=O)C[C@@](O)(C(=O)CO)C[C@@H]3O[C@H]1C[C@H](N)[C@H](O)[C@H](C)O1 [Doxorubicin (Adriamycin)]	0.671 ± 0.44
Cc1cc(N)c2ccccc2[n+]1CCCCCCCCCC[n+]1c(C)cc(N)c2ccccc21 [Dequalinium chloride]	0.203 ± 0.07
C[C@@H]1CC(=O)NN=C1c1ccc(NN=C(C#N)C#N)cc1 [Levosimendan]	0.211 ± 0.066
CCN1CCN(C(=O)N[C@@H](C(=O)N[C@@H]2C(=O)N3C(C(=O)O)=C(CSc4nnnn4C)CS[C@H]23)c2ccc(O)cc2)C(=O)C1=O [Cefoperazone (Cefobid)]	0.221 ± 0.05
CCC(=O)O[C@]1(C(=O)CCl)[C@@H](C)C[C@H]2[C@@H]3C[C@H](F)C4=CC(=O)C=C[C@]4(C)[C@@]3(F)[C@@H](O)C[C@@]21C [Halobetasol Propionate]	0.217 ± 0.061
C[N+](C)(C)C[C@H](O)CC(=O)[O-] [L-carnitine (Levocarnitine)]	0.244 ± 0.12
CCOC(=O)[C@H](CCc1ccccc1)N[C@@H](C)C(=O)N1Cc2ccccc2C[C@H]1C(=O)O [Quinapril HCl (Accupril)]	0.26 ± 0.062
N[C@H](C(=O)O)[C@H](O)c1ccc(O)c(O)c1 [Droxidopa (L-DOPS)]	0.196 ± 0.048
COCCCC/C(=N\OCCN)c1ccc(C(F)(F)F)cc1 [Fluvoxamine maleate]	0.216 ± 0.06
Clc1ccc(C(Cn2ccnc2)OCc2ccc(Sc3ccccc3)cc2)c(Cl)c1 (centres undefined) [Fenticonazole nitrate]	0.223 ± 0.052

8 of the compounds above, bar-delimited:
SMILES | fraction of reporter-positive cells with nuclear
CC(=O)Nc1ccccc1 [Acetanilide (Antifebrin)] | 0.247 ± 0.093
O=NN(CCCl)C(=O)NC1CCCCC1 [Lomustine (CeeNU)] | 0.25 ± 0.08
Cc1cccc(Nc2ccncc2S(=O)(=O)NC(=O)NC(C)C)c1 [Torsemide (Demadex)] | 0.199 ± 0.032
O=P(O)(O)C(O)(Cn1ccnc1)P(=O)(O)O [Zoledronic Acid (Zoledronate)] | 0.213 ± 0.058
C[C@@H]1C/C=C/C=C/C=C/C=C/[C@H](O[C@@H]2O[C@H](C)[C@@H](O)[C@H](N)[C@@H]2O)C[C@@H]2O[C@](O)(C[C@@H](O)C[C@H]3O[C@@H]3/C=C/C(=O)O1)C[C@H](O)[C@H]2C(=O)O [Natamycin (Pimaricin)] | 0.239 ± 0.068
CN(C)CCCN1c2ccccc2Sc2ccc(Cl)cc21 [Chlorpromazine (Sonazine)] | 0.262 ± 0.091
COc1cccc2c1C(=O)c1c(O)c3c(c(O)c1C2=O)C[C@@](O)(C(=O)CO)C[C@@H]3O[C@H]1C[C@H](N)[C@H](O)[C@H](C)O1 [Doxorubicin (Adriamycin)] | 0.671 ± 0.44
Cc1cc(N)c2ccccc2[n+]1CCCCCCCCCC[n+]1c(C)cc(N)c2ccccc21 [Dequalinium chloride] | 0.203 ± 0.07

Next part:

SMILES	fraction of reporter-positive cells with nuclear
CC(=O)[C@]1(O)Cc2c(O)c3c(c(O)c2[C@@H](O[C@H]2C[C@H](N)[C@H](O)[C@H](C)O2)C1)C(=O)c1ccccc1C3=O [Idarubicin HCl]	0.627 ± 0.31
CC(C(=O)O)c1ccc2c(c1)[nH]c1ccc(Cl)cc12 (centres undefined) [Carprofen]	0.204 ± 0.067
Nc1nc(=O)[nH]cc1F [Flucytosine (Ancobon)]	0.211 ± 0.034
C[C@@H](CN1CC(=O)NC(=O)C1)N1CC(=O)NC(=O)C1 [Dexrazoxane Hydrochloride]	0.226 ± 0.079
CC1(C)S[C@@H]2[C@H](NC(=O)[C@H](N)c3ccc(O)cc3)C(=O)N2[C@H]1C(=O)O [Amoxicillin sodium (Amox)]	0.222 ± 0.095
O=C(O)C[C@H](O)C[C@H](O)/C=C/c1c(C2CC2)nc2ccccc2c1-c1ccc(F)cc1 [Pitavastatin calcium (Livalo)]	0.215 ± 0.081
CCC[C@H](NC(=O)[C@@H]1[C@H]2CCC[C@H]2CN1C(=O)[C@@H](NC(=O)[C@@H](NC(=O)c1cnccn1)C1CCCCC1)C(C)(C)C)C(=O)C(=O)NC1CC1 [Telaprevir (VX-950)]	0.2 ± 0.052
CC(=O)NS(=O)(=O)c1ccc(N)cc1 [sulfacetamide sodium]	0.218 ± 0.054
CCN(CC)C(=O)/C(C#N)=C/c1cc(O)c(O)c([N+](=O)[O-])c1 [Entacapone]	0.223 ± 0.055
CN(C)CCC=C1c2ccccc2CCc2ccccc21 [Amitriptyline HCl]	0.207 ± 0.047
CC(C)Cc1ccc(C(C)C(=O)O)cc1 (centres undefined) [Ibuprofen Lysine (NeoProfen)]	0.23 ± 0.068
N[C@@H]1CONC1=O [D-Cycloserine]	0.22 ± 0.096
OC[C@H]1OC(O)[C@H](O)[C@@H](O)[C@@H]1O (stereo partly drawn) [Dextrose (D-glucose)]	0.205 ± 0.11
CO[C@H]1C[C@@H]2CC[C@@H](C)[C@@](O)(O2)C(=O)C(=O)N2CCCC[C@H]2C(=O)O[C@H]([C@H](C)C[C@@H]2CC[C@@H](O)[C@H](OC)C2)CC(=O)[C@H](C)/C=C(\C)[C@@H](O)[C@@H](OC)C(=O)[C@H](C)C[C@H](C)/C=C/C=C/C=C/1C [Rapamycin (Sirolimus)]	0.299 ± 0.12
CC(C(=O)O)c1cccc(Oc2ccccc2)c1 (centres undefined) [Fenoprofen calcium hydrate]	0.202 ± 0.059
CCN1CCN(c2cc3c(cc2F)c(=O)c(C(=O)O)cn3C2CC2)CC1 [Enrofloxacin]	0.22 ± 0.068
O=C(Oc1ccccc1C(=O)O)c1ccccc1O [Sasapyrine]	0.224 ± 0.042
N[C@@H]1CCCCN(c2c(F)cc3c(=O)c(C(=O)O)cn(C4CC4)c3c2Cl)C1 [Besifloxacin HCl (Besivance)]	0.197 ± 0.071
Cc1ccc(O)c([C@H](CCN(C(C)C)C(C)C)c2ccccc2)c1 [Tolterodine tartrate (Detrol LA)]	0.232 ± 0.078
